{"source": "PubChem BioAssay (EPA / NIEHS)", "note": "“And” between values parts separate entries of the source, which are not always exact repeats. Identical values can stand only once. The shares of active, inactive and inconclusive entries below differ from those in the screen. Where the call is inconclusive, the potency comes from a doubtful curve fit. The source holds several records for some structures; these can differ, active in one and inactive in another. The source made the active and inactive calls. Rule for the calls: active = hit-call score of the fitted dose curve at least 0.9, where 1 is the maximum; inconclusive = response in the unintended direction; inactive = score below 0.9.", "data": [{"assay": "CCTE_Mundy_HCI_hNP1_CellTiter: CCTE's Cell Titer-Glo 2 Assay in human neuroprogenitor cells for Viability, Mundy Lab (AID 2284241)", "how_it_was_run": "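Human neural progenitor cells (hNP1, WA09-derived) were plated on poly-L-ornithine/laminin and grown 40 to 44 hours at 37 °C, 5% CO2 before chemical addition. Twenty-four hours later, ATP was measured by CellTiter-Glo luminescence; loss of signal versus DMSO indicates reduced viability.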", "values": [{"smiles": "O=S(=O)(O)C(F)(F)C(F)(F)C(F)(F)C(F)(F)C(F)(F)C(F)(F)F", "outcome": "inactive"}, {"smiles": "CCOP(=O)(OCC)Oc1nc(Cl)c(Cl)cc1Cl", "outcome": "inactive"}, {"smiles": "CCOP(=S)(OCC)SCSC(C)(C)C", "AC50": "inconclusive: 49.8 µM"}, {"smiles": "O=C(Nc1ccccc1-c1ccc(Cl)cc1)c1cccnc1Cl", "AC50": "inconclusive: 12.3 µM"}, {"smiles": "CC(C)(C)C(O)(CCc1ccc(Cl)cc1)Cn1cncn1", "note": "(stereo not drawn)", "outcome": "inactive"}, {"smiles": "CCCSP(=O)(OCC)SCCC", "AC50": "inconclusive: 1.32e-05 µM"}, {"smiles": "O=S1OCC2C(CO1)C1(Cl)C(Cl)=C(Cl)C2(Cl)C1(Cl)Cl", "note": "(stereo not drawn)", "AC50": "active: 12 µM"}, {"smiles": "COP(N)(=O)SC", "note": "(stereo not drawn)", "AC50": "inconclusive: 0.0001 µM"}, {"smiles": "Nc1cc(Cl)cc(C(=O)O)c1Cl", "outcome": "inactive"}]}, {"assay": "CCTE_Mundy_HCI_Cortical_Synap_Neur_Matur_NeuronCount: CCTE's Synaptogenesis and Neurite Maturation Assay in rat cortical cells for Neuron Count, Mundy Lab (AID 2284242);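 for AC50: neuron number from Hoechst nuclei and MAP2 staining by high-content imaging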", "how_it_was_run": "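Rat cortical cultures; AraC DIV 5; chemical dosing + media change DIV 7 to DIV 12 (288.33 h readout). Fix, Hoechst, anti-MAP2/anti-synaptophysin immunostain; HCI neuron count vs DMSO baseline.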", "values": [{"smiles": "O=S(=O)(O)C(F)(F)C(F)(F)C(F)(F)C(F)(F)C(F)(F)C(F)(F)F", "AC50": "inconclusive: 0.00905 µM"}, {"smiles": "O=C(Nc1ccccc1-c1ccc(Cl)cc1)c1cccnc1Cl", "AC50": "inconclusive: 46.7 nM and inconclusive: 3.08 nM"}, {"smiles": "CCCSP(=O)(OCC)SCCC", "outcome": "inactive"}, {"smiles": "CNC(=O)CSP(=O)(OC)OC", "AC50": "inconclusive: 0.00301 µM"}, {"smiles": "ClC1=C(Cl)[C@]2(Cl)[C@@H]3[C@@H]4C[C@@H]([C@H]5O[C@@H]45)[C@@H]3[C@@]1(Cl)C2(Cl)Cl", "AC50": "active: 25 µM"}, {"smiles": "O=P1(N(CCCl)CCCl)NCCCO1", "note": "(stereo not drawn)", "AC50": "inconclusive: 0.387 µM"}, {"smiles": "O=C(O)C(F)(OC(F)(F)C(F)(F)C(F)(F)F)C(F)(F)F", "note": "(stereo not drawn)", "AC50": "active: 6.27 µM"}, {"smiles": "ClC1=C(Cl)[C@]2(Cl)[C@@H]3[C@@H](Cl)[C@H]4O[C@H]4[C@@H]3C1(Cl)C2(Cl)Cl", "AC50": "active: 7.22 µM"}, {"smiles": "ClC1=C(Cl)C2(Cl)C3C(Cl)C=CC3C1(Cl)C2(Cl)Cl", "note": "(stereo not drawn)", "AC50": "active: 11.5 µM"}, {"smiles": "CCC1(c2ccccc2)C(=O)N=C(O)NC1=O", "note": "(stereo not drawn)", "outcome": "inactive"}, {"smiles": "COP(N)(=O)SC", "note": "(stereo not drawn)", "AC50": "inconclusive: 2.98 µM", "outcome": "inactive"}, {"smiles": "Nc1cc(Cl)cc(C(=O)O)c1Cl", "outcome": "inactive"}]}, {"assay": "IUF_NPC5_oligodendrocyte_differentiation_120hr: Leibniz Research Institute for Environmental Medicine (IUF) 120-hour Oligodendrocyte Differentiation Assay (NPC5) (AID 2284304);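 note: primary human fetal neural progenitor spheres plated to migrate and differentiate; share of O4-positive cells among Hoechst nuclei found by CNN image analysis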", "how_it_was_run": "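Human fetal neural progenitor spheres (0.3 mm) plated on poly-D-lysine/laminin in N2 differentiation medium and exposed for 120 h at 7 concentrations, with half-medium renewal at day 3. O4-positive cells identified by CNN, expressed as percent of Hoechst nuclei.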", "values": [{"smiles": "CCOP(=O)(OCC)Oc1nc(Cl)c(Cl)cc1Cl", "AC50": "inconclusive: 10 µM"}, {"smiles": "COP(=O)(OC)O/C(=C\\Cl)c1cc(Cl)c(Cl)cc1Cl", "AC50": "inconclusive: 0.241 µM"}, {"smiles": "CCOP(=S)(OCC)SCSC(C)(C)C", "AC50": "inconclusive: 49.8 µM"}, {"smiles": "CC(C)(C)C(O)(CCc1ccc(Cl)cc1)Cn1cncn1", "note": "(stereo not drawn)", "outcome": "inactive"}, {"smiles": "CNC(=O)CSP(=O)(OC)OC", "AC50": "inconclusive: 1.98 µM"}, {"smiles": "O=C(O)C(F)(OC(F)(F)C(F)(F)C(F)(F)F)C(F)(F)F", "note": "(stereo not drawn)", "outcome": "inactive"}]}]}
